For some assays here: Weaker means in comparison with the reference protein, sequence or condition of that experiment. For some assays here: Tags and fusion partners may be left off the protein sequences shown. The exact form of at least one protein or probe is not confirmed. At least one verdict rests on a figure or table, not on a statement of the authors.

Amino acid sequences for entries named in this document (tags omitted). Residues count along the entry.
UniProt Q07666, 150-260: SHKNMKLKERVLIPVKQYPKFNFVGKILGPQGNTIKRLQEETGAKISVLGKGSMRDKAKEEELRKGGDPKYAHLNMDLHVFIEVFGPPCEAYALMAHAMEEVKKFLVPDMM

One data set concerns the target T1, T-STAR KH (UniProt O75525).
T1 sequence (looked up): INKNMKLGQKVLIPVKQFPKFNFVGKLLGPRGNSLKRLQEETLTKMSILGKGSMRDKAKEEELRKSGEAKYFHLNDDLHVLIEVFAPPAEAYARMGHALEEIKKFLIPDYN
Nature of the data set: NMR 15N-1H HSQC CSP. Particulars: T-STAR KH: 10 mM Tris-HCl pH 7 (also given as pH 6.5, 50 mM NaCl, 30 C); Sam68 KH: 20 mM sodium phosphate pH 7.0, 50 mM NaCl, 20 C; about 0.2 mM protein; recombinant protein; residues 50-160; protein details: N-terminal His tag removed by TEV.
As to UAAAAU, the binding result is on record as “binds”.
The same measure, in the same setting: as for AAAUAU, the entry is “binds”; as for AUUUUU, “binds”.
For UUUUUU [UUUUUU (polyU 6mer)], the binding result was “binds”.
As to AAUAAA, the binding result is “binds”.
Same read-out and setting: as for UAAAUU, the entry is “binds”; as for AAUUUU, “binds”.
For the sequence UUUAAA, the binding result is listed as “binds”.
As for UAAAUA, the binding result is “binds”.
For UAAAAA, the binding result is given as “binds”.
Still for that read-out and setting: as for AAUAUU, the entry is “binds”; as for AUUAAA, “binds”.

The same data set, now with this note: intermediate exchange, higher affinity than AAAUAA; T-STAR KH: 10 mM Tris-HCl pH 7 (also given as pH 6.5, 50 mM NaCl, 30 C); Sam68 KH: 20 mM sodium phosphate pH 7.0, 50 mM NaCl, 20 C; about 0.2 mM protein; recombinant protein; residues 50-160; protein details: N-terminal His tag removed by TEV.
For the sequence AAAAAAUAA, the binding result is “binds”.
With UUUAAAUAA, the binding result is on record as “binds”.

The data set is the same for the next values; noted with them: lower affinity than AAAUAA; T-STAR KH: 10 mM Tris-HCl pH 7 (also given as pH 6.5, 50 mM NaCl, 30 C); Sam68 KH: 20 mM sodium phosphate pH 7.0, 50 mM NaCl, 20 C; about 0.2 mM protein; recombinant protein; residues 50-160; protein details: N-terminal His tag removed by TEV.
As for AAAUUU, the binding result is listed as “binds more weakly”.

Still in this data set, the particulars now being: smaller CSP than 6mer, data not shown; T-STAR KH: 10 mM Tris-HCl pH 7 (also given as pH 6.5, 50 mM NaCl, 30 C); Sam68 KH: 20 mM sodium phosphate pH 7.0, 50 mM NaCl, 20 C; about 0.2 mM protein; recombinant protein; residues 50-160; protein details: N-terminal His tag removed by TEV.
As to AAAUA, the binding result was “binds more weakly”.
On the same count and under the same terms, as for AAUAA, the entry is “binds more weakly”.

For another data set, the target named is Sam68 KH (UniProt Q07666). As to the kind of experiment: NMR 15N-1H HSQC CSP. The conditions noted are these: T-STAR KH: 10 mM Tris-HCl pH 7 (also given as pH 6.5, 50 mM NaCl, 30 C); Sam68 KH: 20 mM sodium phosphate pH 7.0, 50 mM NaCl, 20 C; about 0.2 mM protein; recombinant protein; residues 150-260; protein details: N-terminal His tag removed by TEV.
With UAAAAU, the binding result is “binds”.
The same measure, in the same setting: as for AAAUUU, the entry is “binds”.
Still for that read-out and setting: under AAAUAA stands “binds”.

The values are drawn from article PMC3959648.
